Our source for the binding values is publication PMC9409277, “Ethyl Vinyl Ketone Activates K^+ Efflux to Regulate Stomatal Closure by MRP4-Dependent eATP Accumulation Working Upstream of H2O2 Burst in Arabidopsis” (International Journal of Molecular Sciences, 2022).

The chains behind the UniProt entries cited, without tags or fusion partners. Where a name states a change or a piece, a line headed by the entry shows the natural chain unless it says otherwise.
UniProt O48538: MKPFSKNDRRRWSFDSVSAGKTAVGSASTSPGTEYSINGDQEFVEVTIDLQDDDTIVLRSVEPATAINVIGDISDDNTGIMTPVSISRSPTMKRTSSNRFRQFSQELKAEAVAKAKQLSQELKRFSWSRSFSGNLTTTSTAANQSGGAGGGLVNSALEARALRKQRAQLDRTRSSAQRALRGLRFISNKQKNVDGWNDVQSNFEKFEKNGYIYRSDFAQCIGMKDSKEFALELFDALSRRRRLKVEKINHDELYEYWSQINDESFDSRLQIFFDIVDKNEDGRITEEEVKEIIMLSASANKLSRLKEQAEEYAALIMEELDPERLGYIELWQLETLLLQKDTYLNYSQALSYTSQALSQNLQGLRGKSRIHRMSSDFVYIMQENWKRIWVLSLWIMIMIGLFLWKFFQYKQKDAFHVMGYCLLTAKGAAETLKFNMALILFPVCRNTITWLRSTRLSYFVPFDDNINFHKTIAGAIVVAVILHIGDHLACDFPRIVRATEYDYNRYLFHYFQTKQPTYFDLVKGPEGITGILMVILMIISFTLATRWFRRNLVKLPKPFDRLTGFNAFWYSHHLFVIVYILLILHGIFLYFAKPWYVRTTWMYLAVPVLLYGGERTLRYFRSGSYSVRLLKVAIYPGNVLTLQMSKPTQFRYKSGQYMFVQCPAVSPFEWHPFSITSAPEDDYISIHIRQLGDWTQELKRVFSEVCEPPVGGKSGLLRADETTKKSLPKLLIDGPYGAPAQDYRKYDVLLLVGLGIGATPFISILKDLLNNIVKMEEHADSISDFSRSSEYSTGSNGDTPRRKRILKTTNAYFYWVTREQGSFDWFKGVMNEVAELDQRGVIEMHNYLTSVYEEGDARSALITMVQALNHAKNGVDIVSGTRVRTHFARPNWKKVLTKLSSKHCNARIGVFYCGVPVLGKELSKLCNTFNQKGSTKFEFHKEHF

No constants are given. Whether binding was seen depends on the method and setting. For part of these data: Binding seen in cells or lysates may run through a third protein. Some entries that bind do so weakly or less than the wild type. For part of these data: Sequences can lack the tags named with a protein.

Test [1] addresses T1, DORN1-BK (DORN1 in pGBKT7) (Arabidopsis) (UniProt Q9LSR8).
T1 sequence: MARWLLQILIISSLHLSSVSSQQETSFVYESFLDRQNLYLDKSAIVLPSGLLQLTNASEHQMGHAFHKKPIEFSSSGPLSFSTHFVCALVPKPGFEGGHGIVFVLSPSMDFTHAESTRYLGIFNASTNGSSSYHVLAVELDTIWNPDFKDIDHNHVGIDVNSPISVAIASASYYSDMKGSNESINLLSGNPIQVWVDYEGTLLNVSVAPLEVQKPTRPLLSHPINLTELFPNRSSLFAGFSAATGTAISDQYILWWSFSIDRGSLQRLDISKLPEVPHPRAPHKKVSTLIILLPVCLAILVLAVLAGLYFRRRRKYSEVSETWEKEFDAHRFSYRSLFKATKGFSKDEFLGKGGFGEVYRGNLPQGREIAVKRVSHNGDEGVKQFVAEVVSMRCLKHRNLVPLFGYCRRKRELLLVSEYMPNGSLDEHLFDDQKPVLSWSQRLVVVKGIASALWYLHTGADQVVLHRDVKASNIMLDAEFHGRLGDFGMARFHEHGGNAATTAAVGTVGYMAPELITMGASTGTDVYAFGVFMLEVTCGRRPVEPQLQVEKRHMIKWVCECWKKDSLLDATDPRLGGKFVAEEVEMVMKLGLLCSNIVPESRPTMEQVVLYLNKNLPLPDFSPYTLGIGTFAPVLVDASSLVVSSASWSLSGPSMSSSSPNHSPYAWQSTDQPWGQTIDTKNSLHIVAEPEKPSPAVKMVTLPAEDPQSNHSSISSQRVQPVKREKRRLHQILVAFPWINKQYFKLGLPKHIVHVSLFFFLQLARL
Description: two-hybrid; DORN1 in pGBKT7 as bait, RBOHF(1-387aa) in pGADT7; yeast AH109; growth on SD/-Ade/-His/-Leu/-Trp and blue colonies with X-alpha-gal; 12.5 mM 3-AT to inhibit self-activation of the bait.

Test [2] addresses T2, DORN1-YNE (DORN1 in pSPYNE) (Arabidopsis) (UniProt Q9LSR8).
T2 sequence: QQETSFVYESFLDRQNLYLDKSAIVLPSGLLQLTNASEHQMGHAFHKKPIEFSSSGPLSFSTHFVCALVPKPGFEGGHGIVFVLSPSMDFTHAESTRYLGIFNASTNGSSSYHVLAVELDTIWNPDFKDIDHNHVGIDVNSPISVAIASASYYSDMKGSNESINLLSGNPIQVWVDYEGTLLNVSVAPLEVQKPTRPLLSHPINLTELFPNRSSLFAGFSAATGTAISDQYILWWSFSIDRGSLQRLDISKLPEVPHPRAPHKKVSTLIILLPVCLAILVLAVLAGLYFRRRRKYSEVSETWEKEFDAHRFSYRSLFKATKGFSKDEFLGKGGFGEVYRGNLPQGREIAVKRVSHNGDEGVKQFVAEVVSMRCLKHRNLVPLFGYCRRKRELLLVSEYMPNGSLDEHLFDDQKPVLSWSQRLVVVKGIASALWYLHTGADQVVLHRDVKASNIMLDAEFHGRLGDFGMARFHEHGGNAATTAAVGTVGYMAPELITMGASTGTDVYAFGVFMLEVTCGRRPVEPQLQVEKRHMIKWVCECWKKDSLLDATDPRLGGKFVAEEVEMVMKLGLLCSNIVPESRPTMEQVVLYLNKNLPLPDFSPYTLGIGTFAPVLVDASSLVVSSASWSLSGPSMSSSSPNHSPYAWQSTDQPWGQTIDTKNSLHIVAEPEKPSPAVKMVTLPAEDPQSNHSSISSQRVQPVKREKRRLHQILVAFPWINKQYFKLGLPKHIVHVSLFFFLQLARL
Description: split reporter; BiFC: DORN1-YNE and RBOHF-YCE in tobacco leaves by Agrobacterium; YFP fluorescence by confocal microscopy.

Test [3] has as its target T3, DORN1-Cluc (Arabidopsis) (UniProt Q9LSR8).
T3 sequence: T2 sequence
Description: split reporter; firefly luciferase complementation imaging (LCI): DORN1-Cluc and RBOHF-Nluc in Nicotiana leaves by Agrobacterium GV3101; leaf in four quadrants with Cluc/Nluc controls.

“RBOHF(1-387aa)-AD (RBOHF residues 1-387 in pGADT7) (from UniProt O48538 1-387) (domain or fragment)”: the binding entry in test [1] is on record as “binds”. “RBOHF-YCE (RBOHF in pSPYCE) (from UniProt O48538 1-944)”: in test [2], the binding entry is “binds”. On to RBOHF-Nluc (from UniProt O48538 1-944), for which the binding result in test [3] is “binds”.
